PubChem BioAssay AID2517 (National Center for Advancing Translational Sciences (NCATS), 2010)
Hit rate of the full screen: of about 350,000 compounds, about 1,200 (0.34%) were called active. Inconclusive means that the source gave no clear call. Such entries were picked first, then a sample of the others. The call rests on the fitted dose curve; in most records, active means well fitted inhibition curve with a large enough effect; inconclusive means small, poorly fitted or top-dose-only effect; inactive means no such curve, though single readings can be large or run the other way. A potency beside an inconclusive call is a rough fit, not a confirmed value.

Sequences of proteins named here, by UniProt entry; tags and fusion partners are left off.
UniProt P27695, whole entry, looked up: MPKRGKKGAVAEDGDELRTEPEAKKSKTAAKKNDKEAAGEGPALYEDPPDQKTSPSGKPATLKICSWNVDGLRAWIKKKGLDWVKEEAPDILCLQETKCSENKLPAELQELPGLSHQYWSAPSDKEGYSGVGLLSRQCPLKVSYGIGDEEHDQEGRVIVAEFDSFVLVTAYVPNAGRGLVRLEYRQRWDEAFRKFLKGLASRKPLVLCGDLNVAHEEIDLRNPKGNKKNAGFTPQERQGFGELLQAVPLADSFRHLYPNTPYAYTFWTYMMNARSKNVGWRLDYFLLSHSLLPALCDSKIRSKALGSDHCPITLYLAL

These compounds were tested against DNA repair nuclease/redox regulator APEX1 (Homo sapiens) (UniProt P27695) (assay: qHTS Assay for Inhibitors of the Human Apurinic/apyrimidinic Endonuclease 1 (APE1)). Details: recombinant APE1, TAMRA/BHQ-2 abasic DNA cleavage fluorescence; activity change, negative = inhibition: at 65.8 µM (top of the series).
In short: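 Incision of a quenched TAMRA/BHQ-2 THF abasic-site duplex (50 nM) by 0.75 nM APE1, after 15 min compound preincubation, measured as fluorescence increase over three 60 s reads. Values normalized to buffer, DMSO and NSC13755 control wells.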
Further: nearly all actives have a fitted effect of over 55% in size.
Potency means the concentration at half of the fitted maximal effect.
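Wherever activity change, negative = inhibition is given: plate controls were vehicle for no effect and reference inhibitor for full effect.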

| SMILES | activity change, negative = inhibition | Potency |
| --- | --- | --- |
| O=c1[nH]ncc2ccccc12 | inactive: 3.8% | – |
| Cc1ccc(C(O)(C(=O)NNc2ccccn2)c2ccc(C)cc2)cc1 | inactive: 1.69% | – |
| Cc1ccc(NC(=O)c2cccc(OCc3c(C)noc3C)c2)cc1 | inactive: -6.88% | – |
| O=C(COC(=O)c1cccc(S(=O)(=O)N2CCc3ccccc32)c1)Nc1ccc(Cl)cn1 | – | inconclusive: 31.6 µM [inhibitor, single point] |
| Cc1ccccc1-n1c(SCC(=O)c2cc(C)n(C)c2C)nnc1-c1ccncc1 | – | inconclusive: 28.2 µM [inhibitor, single point] |
| O=C(c1cnn(-c2ccccc2)c1-n1cccc1)N1CCN(C2CCCCC2)CC1 | – | inconclusive: 44.7 µM [inhibitor, single point] |
| Cc1c(Cc2ccccc2)sc(NC(=O)c2ccco2)c1C(N)=O | – | inconclusive: 44.7 µM [inhibitor, partial curve] |
| O=C(NC1CC1)C1=C[C@H](c2c[nH]c3ccccc23)C[C@H](OCc2ccc(CO)cc2)O1 | – | inconclusive: 0.562 µM [inhibitor, full curve, poor fit] |
| Cc1cccc(C(=O)NCC(=O)N2CCCC2)c1 | inactive: -3.52% | – |
| Oc1c(C(c2ccccn2)N2CCCCC2)cc(Cl)c2cccnc12 (stereo not given) | – | inconclusive: 44.7 µM [inhibitor, single point] |
| CC1SC(C)C(=O)N(CC(=O)Nc2ccc3c(c2)OCO3)C1=O (stereo not given) | – | inconclusive: 56.2 µM [inhibitor, single point] |
| COc1ccc(C(=O)Nc2nc3ccccc3c(=O)[nH]2)cc1 | – | inconclusive: 35.5 µM [inhibitor, single point] |
| COC(=O)C1(Cc2ccc(O)c(CC3OC3(C)C)c2)OC(=O)C(O)=C1c1ccc(O)cc1 (stereo not given) | – | inconclusive: 3.98 µM [inhibitor, partial curve] |
| O=C(NCC(c1cccs1)N1CCOCC1)C1CCN(S(=O)(=O)c2ccccc2C(F)(F)F)CC1 (stereo not given) | – | inconclusive: 37.7 µM [inhibitor, single point] |
| Cc1noc(NS(=O)(=O)c2ccc(NC(=O)c3ccoc3C)cc2)c1C | – | inconclusive: 39.8 µM [inhibitor, single point] |
| COc1ccc(CCN(C)CCCOc2ccc(S(=O)(=O)c3[nH]c4ccccc4c3C(C)C)cc2)cc1OC | inactive: -9.8% | – |
| COc1ccc(NS(=O)(=O)c2ccc(Cl)c(C(=O)O)c2)cc1S(=O)(=O)N1CCCCC1 | – | inconclusive: 8.91 µM [inhibitor, single point] |
| Cc1ccccc1-c1nc(N2CCOCC2)c2ccccc2n1 | – | active: 8.91 µM |
| Cc1cnc(CNc2ccnc(-c3cccc(NS(C)(=O)=O)c3)n2)cn1 | inactive: 13% | – |
| OCCCN=c1cc(-c2ccccc2)oc2ccc(Cl)cc12 | inactive: 5.06% | – |
| N[C@@H](Cc1cc(I)c(O)c(I)c1)C(=O)O | – | inactive |
| CC(C)C(c1nnnn1C1CCCCC1)N1CCN(c2ncccn2)CC1 (stereo not given) | – | inconclusive: 0.1 µM [inhibitor, full curve, poor fit] |

| SMILES | activity change, negative = inhibition | Potency |
| --- | --- | --- |
| CC(=O)Nc1ccc(Nc2c3ccccc3nc3ccccc23)cc1 | – | inconclusive: 22.4 µM [inhibitor, partial curve] |
| Cc1ccc(NC(=S)N2CCC(O)CC2)c(C)c1 | – | inconclusive: 35.5 µM [inhibitor, single point] |
| COC1=C/C(=C/c2c(N)n3c(nc2=O)sc2cc(S(C)(=O)=O)ccc23)C=CC1=O | inactive: -8% | – |
| COC(=O)CSc1nc(N)c(C#N)c(-c2ccc(O)cc2)c1C#N | inactive: 4.44% | – |
| O=C1C2C3C=CC(C3)C2C(=O)N1CNc1ccc(O)cc1 (stereo not given) | – | inconclusive: 39.8 µM [inhibitor, partial curve, poor fit] |
| O=C(Nc1ccccc1)C1=C[C@@H](c2ccc(Br)cc2)C[C@@H](OCCCCO)O1 | – | inconclusive: 10 µM [inhibitor, partial curve] |
| C[C@H]1CN=C2N(CCNC(=O)CCC3CCCCC3)[C@H](Cc3ccc(O)cc3)CN21 | – | inconclusive: 50.1 µM [inhibitor, partial curve, poor fit] |
| O=C(CSc1nc2ccccc2[nH]1)N1c2ccccc2Sc2ccccc21 | – | inconclusive: 28.2 µM [inhibitor, partial curve] |
| O=C(O)c1cc(N/N=C/c2ccc3c(c2)OCCO3)ccc1Cl | inactive: -9.33% | – |
| O=C(Cc1ccccc1)NCCSCc1ccc(Cl)cc1 | – | inconclusive: 0.891 µM [inhibitor, partial curve] |
| Cc1nn(Cc2ccc(Cl)cc2)c(C)c1NC(=O)CCCn1nc([N+](=O)[O-])c(Cl)c1C | – | inconclusive: 0.0631 µM [inhibitor, full curve] |
| COc1cc(NC(=O)c2cc(C)on2)cc(C(=O)Nc2cccc(C(F)(F)F)c2)c1 | – | inconclusive: 44.7 µM [inhibitor, single point] |
| Nc1nnc(SCC(=O)Nc2nnc(-c3ccccc3)o2)s1 | inactive: 4.01% | – |
| CCN(CC)c1ccc(-c2nnc(SCC(=O)Nc3ccccc3C#N)n2-c2ccccc2)cc1 | – | inconclusive: 0.0013 µM [inhibitor] |
| Cc1cc([N+](=O)[O-])nn1CC(=O)Nc1sc2c(c1C(N)=O)CCCC2 | – | inconclusive: 3.98 µM [inhibitor, single point] |
| COc1cc(/C=C/C(=O)OCC(=O)Nc2ccc(C)c(S(=O)(=O)N3CCCCC3)c2)ccc1O | – | inconclusive: 1.78 µM [inhibitor, single point] |
| CC(C)Nc1ccc(Nc2ccnc3cc4ccccc4cc23)cc1 | – | inconclusive: 20 µM [inhibitor, partial curve] |
| COC(=O)N1CCC2(CCN(Cc3ccccc3OC)CC2)CC1 | – | inconclusive: 39.8 µM [inhibitor, single point] |
| Cc1c(Br)c(C(F)(F)F)nn1CC(=O)NCCCn1ccnc1 | – | inconclusive: 11.2 µM [inhibitor, partial curve] |
| COCCn1c(C)cc(C(=O)CSc2nnc(C)s2)c1C | – | inconclusive: 8.91 µM [inhibitor, partial curve, poor fit] |
| Cn1c(=O)[nH]c(=O)c2c1nc(CN1CCN(c3ccc(F)cc3)CC1)n2CCCc1ccccc1 | – | inconclusive: 50.1 µM [inhibitor, single point] |
| Cc1ccc(Nc2nc(N)nc(CN3CCN(C(=O)c4ccco4)CC3)n2)cc1Cl | – | inconclusive: 17.8 µM [inhibitor, single point] |

| SMILES | activity change, negative = inhibition | Potency |
| --- | --- | --- |
| C#CCOCCOCCOCCNc1nc(N2CCN(C(=O)[C@H](CCCCN)n3cc([C@@H](N)CC(C)C)nn3)CC2)nc(N2CCN(C(=O)[C@H](CCCCN)n3cc([C@@H](N)CC(C)C)nn3)CC2)n1 | inactive: -4.3% | – |
| CCCCOc1ccc(-c2[nH]ncc2C=O)cc1 | – | inconclusive: 0.794 µM [inhibitor, full curve, poor fit] |
| COc1ccc(C)c(S(=O)(=O)Nc2ccc(OCC(=O)O)cc2)c1 | – | inconclusive: 35.5 µM [inhibitor, single point] |
| O=c1[nH]nc(N/N=C/c2ccc(Cl)cc2Cl)c(=O)[nH]1 | – | inconclusive: 8.91 µM [inhibitor, single point] |
| COc1ccccc1C(=O)NNc1ncc(C)s1 | inactive: 19.2% | – |
| CSc1sccc1/C=C(/C#N)C(=O)c1ccco1 | inactive: 29.6% | – |
| COC(=O)c1cccc(S(=O)(=O)N2CCCC2)c1 | – | inconclusive: 1.26 µM [inhibitor, partial curve, poor fit] |
| O=C(/C=C/c1ccc(Br)o1)NCc1ccccc1 | – | inconclusive: 6.31 µM [inhibitor, single point] |
| Nc1nc(-c2ccc(-n3nncc3-c3ccco3)cc2)cs1 | – | inconclusive: 2.82 µM [inhibitor, single point] |
| COc1ccc(NC(=O)C2CCN(C(=O)Cc3ccccc3)CC2)cc1OC | – | inconclusive: 3.98 µM [inhibitor, partial curve, poor fit] |
| COc1ccccc1C(=O)Nc1ccc(C2=NNC(=O)CC2C)cc1 (stereo not given) | – | inconclusive: 0.005 µM [inhibitor, full curve, poor fit] |
| Cc1sc2nc(CN(Cc3cccs3)C(=O)NC3CCCCC3)[nH]c(=O)c2c1C | – | inconclusive: 20 µM [inhibitor, single point] |
| CCC(C)NCCOc1ccccc1C (stereo not given) | – | inconclusive: 0.02 µM [inhibitor, full curve] |
| O=C(NC1CCCCC1)C(c1ccncc1)N(Cc1ccc2c(c1)OCO2)C(=O)C(F)(F)F (stereo not given) | – | inconclusive: 39.8 µM [inhibitor, single point] |
| COC(=O)[C@@]1(Cc2ccccc2)[C@H]2c3cc(C(=O)N(C)C)n(Cc4ccc(S(C)(=O)=O)cc4)c3C[C@H]2CN1C(=O)c1ccccc1 | – | inconclusive: 3.16 µM [inhibitor, partial curve, poor fit] |
| CCCCCCCC(=O)O[C@H](CC(=O)O)C[N+](C)(C)C | inactive: -3.86% | – |
| CC1CCN(CCCNC(=O)c2cc3c(s2)-c2ccccc2OC3)CC1 | inactive: -0.921% | – |
| Clc1ccc(-c2csc(N/N=C/c3ccc4c(c3)OCO4)n2)cc1 | – | inconclusive: 3.16 µM [inhibitor, single point] |
| COc1ccc(-n2[nH]c(C)cc2=O)cc1 | – | inconclusive: 50.1 µM [inhibitor, single point] |
| CCOC(=O)CCN1C(=O)[C@H]2[C@H]3[C@H](O)[C@H](O)C/C(=N/O[C@@H]4O[C@@H](COC(C)=O)[C@@H](OC(C)=O)[C@@H](OC(C)=O)[C@H]4OC(C)=O)[C@@H]3CC[C@@H]2C1=O | – | inconclusive: 7.94 µM [inhibitor, single point] |
| O=C(COC(=O)Cc1ccc(S(=O)(=O)N2CCOCC2)s1)Nc1ccc([N+](=O)[O-])cc1 | – | inconclusive: 26.7 µM [inhibitor, single point] |

Single records, from the list above. Values in the order: activity change, negative = inhibition	Potency
COc1ccc(C)c(S(=O)(=O)Nc2ccc(OCC(=O)O)cc2)c1 is listed with –	inconclusive: 35.5 µM [inhibitor, single point]
COc1ccccc1C(=O)Nc1ccc(C2=NNC(=O)CC2C)cc1 (stereo not given) is listed with –	inconclusive: 0.005 µM [inhibitor, full curve, poor fit]
Cc1sc2nc(CN(Cc3cccs3)C(=O)NC3CCCCC3)[nH]c(=O)c2c1C is listed with –	inconclusive: 20 µM [inhibitor, single point]
CCCCCCCC(=O)O[C@H](CC(=O)O)C[N+](C)(C)C is listed with inactive: -3.86%	–
